{"sequences": {"note": "Amino acid sequences for entries named in this document (tags omitted).", "UniProt Q8RY59": "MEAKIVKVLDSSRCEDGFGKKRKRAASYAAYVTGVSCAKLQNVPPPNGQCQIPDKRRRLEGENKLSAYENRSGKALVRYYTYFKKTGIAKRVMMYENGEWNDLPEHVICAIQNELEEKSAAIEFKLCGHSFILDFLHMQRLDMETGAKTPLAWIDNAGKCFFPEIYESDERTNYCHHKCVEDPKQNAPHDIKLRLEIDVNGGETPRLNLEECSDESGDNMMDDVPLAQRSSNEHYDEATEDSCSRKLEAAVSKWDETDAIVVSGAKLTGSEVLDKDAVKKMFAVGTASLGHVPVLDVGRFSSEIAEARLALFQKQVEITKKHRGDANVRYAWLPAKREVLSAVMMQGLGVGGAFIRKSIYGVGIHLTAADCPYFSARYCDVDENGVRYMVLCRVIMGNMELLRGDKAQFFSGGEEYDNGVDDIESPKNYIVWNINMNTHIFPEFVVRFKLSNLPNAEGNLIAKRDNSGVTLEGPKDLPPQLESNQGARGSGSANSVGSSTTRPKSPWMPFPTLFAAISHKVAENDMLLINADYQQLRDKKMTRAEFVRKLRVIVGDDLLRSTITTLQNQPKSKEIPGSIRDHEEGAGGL"}, "source": "paper PMC10298584", "binders": {"B1": {"name": "Arabidopsis NAC domain-containing protein 17 (ANAC017), full-length, in pGADT7 (protein, UniProt Q9XIC5 1-557)", "chain": "MADSSPDSCFKGGKFSAPGFRFHPTDEELVMYYLKRKICRKRLRVNVIGVVDVYKMDPEELPGQSMLKTGDRQWFYFTPRSRKYPNAARSNRGTENGYWKATGKDRVIEYNSRSVGLKKTLVFYRGRAPSGERTDWVMHEYTMDEDELGRCKNPQEYYALYKLFKKSGAGPKNGEQYGAPFQEEEWVDDDNEDVNAIAVAVPEQPVVRYEDARRVDERRLFNPVILQLEDIDELLNGIPNAPGVPQRCIPQVNSEEELQSTLVNNSAREFLPNGQQYNRPSSFDSLETAEVTSAPLVFEKEDFIEMDDLLLIPEFGASSTEKAAQFSNHGEFDDFNEFDQLFHDVSMSLDMEPIDQGTSANLSSLSDSANYTSDQKQQLLYQQFQDQTPENQLNNIMDPSTTLNQITSDIWFEDDQAILFDQQQSFSGAFASPSSGVMPDSTNPTMSVNAQGHEIQNGGGTTSQFSSALWALMDSIPSTPASACEGPLNRTFVRMSSFSRMRFNGKANGTPVSTTIAKKGIRNRGFLLLSIVGALCAIFWVLVATVRVSGRSLLLKD"}}, "molecular_target": "RADICAL-INDUCED CELL DEATH 1 (RCD1), full-length, in pGBKT7 (Arabidopsis thaliana) (UniProt Q8RY59)", "test": "two-hybrid; RCD1 in pGBKT7, ANAC017 in pGADT7, yeast strain Y2HGold; growth on SD-Leu-Trp-His or SD-Ade-Leu-Trp-His", "note": "Results are given in words; binding and its absence hold for the method and conditions named. Some results given as binding are weak or reduced against the parent protein; the word gives no strength."}
{"binder": "B1", "values": [{"measurement": "binding", "value": "binds"}]}
